PubChem BioAssay AID504774 – Drosophila RNAi Screening Center – 2011
Screen: 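Fly genes whose loss alters survival after alkylation damage to DNA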 (primary screen). System: Drosophila Kc167 cells. Reagent: long dsRNA against Drosophila genes, about 0.25 µg dsRNA per well. Duration: about 6 days: 3 days knock-down, then 3 days with or without MMS. Conditions: methyl methanesulphonate 0.004% (w/v) for 3 days after knock-down. Read-out: 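ATP-dependent luminescence as a measure of live cells in MMS-exposed wells, quantile normalised within each plate, with replicate values also given as a mean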. Direction: mean viability with MMS: higher = more surviving cells after MMS.
The deposit covers about 23,000 reagents; shown is an unselected part of those that have a named target and a result. 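Values are quantile-normalised luminescence on an arbitrary scale; higher means more cells surviving MMS.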 Not all columns of the deposit are shown.

The first 4 records, ahead of the listing:
{"Gene": "CG6006", "PubChem SID": "SID104192929", "mean viability with MMS": 3.53e6}
{"Gene": "CG6006", "PubChem SID": "SID104195738", "mean viability with MMS": 3.60e6}
{"Gene": "Spn43Ab", "PubChem SID": "SID104186573", "mean viability with MMS": 3.55e6}
{"Gene": "MFS10", "PubChem SID": "SID104199680", "mean viability with MMS": 3.65e6}

Results, from the first entry:
{"Gene": "CG6006", "PubChem SID": "SID104192929", "mean viability with MMS": 3.53e6}
{"Gene": "CG6006", "PubChem SID": "SID104195738", "mean viability with MMS": 3.60e6}
{"Gene": "Spn43Ab", "PubChem SID": "SID104186573", "mean viability with MMS": 3.55e6}
{"Gene": "MFS10", "PubChem SID": "SID104199680", "mean viability with MMS": 3.65e6}
{"Gene": "GstZ2", "PubChem SID": "SID104196271", "mean viability with MMS": 3.58e6}
{"Gene": "nolo", "PubChem SID": "SID104183497", "mean viability with MMS": 3.70e6}
{"Gene": "nolo", "PubChem SID": "SID104183511", "mean viability with MMS": 3.59e6}
{"Gene": "nolo", "PubChem SID": "SID104183512", "mean viability with MMS": 3.49e6}
{"Gene": "Csk", "PubChem SID": "SID104192653", "mean viability with MMS": 3.61e6}
{"Gene": "Csk", "PubChem SID": "SID104195015", "mean viability with MMS": 3.34e6}
{"Gene": "Csk", "PubChem SID": "SID104202629", "mean viability with MMS": 3.61e6}
{"Gene": "CG31269", "PubChem SID": "SID104195536", "mean viability with MMS": 3.67e6}
{"Gene": "Ras64B", "PubChem SID": "SID104188481", "mean viability with MMS": 3.53e6}
{"Gene": "AnxB9", "PubChem SID": "SID104193903", "mean viability with MMS": 3.52e6}
{"Gene": "CG15767", "PubChem SID": "SID104197865", "mean viability with MMS": 3.47e6}
{"Gene": "aqrs", "PubChem SID": "SID104194516", "mean viability with MMS": 3.62e6}
{"Gene": "Shab", "PubChem SID": "SID104187805", "mean viability with MMS": 3.68e6}
{"Gene": "Shab", "PubChem SID": "SID104188435", "mean viability with MMS": 3.44e6}
{"Gene": "Shab", "PubChem SID": "SID104188491", "mean viability with MMS": 3.26e6}
{"Gene": "CG3907", "PubChem SID": "SID104184224", "mean viability with MMS": 3.42e6}
{"Gene": "inc", "PubChem SID": "SID104197746", "mean viability with MMS": 3.61e6}
{"Gene": "inc", "PubChem SID": "SID104198304", "mean viability with MMS": 3.51e6}
{"Gene": "CG3942", "PubChem SID": "SID104195317", "mean viability with MMS": 3.73e6}
{"Gene": "Spec2 (retired record)", "PubChem SID": "SID104192050", "mean viability with MMS": 3.65e6}
{"Gene": "Spec2 (retired record)", "PubChem SID": "SID104202245", "mean viability with MMS": 3.41e6}
{"Gene": "Ac76E", "PubChem SID": "SID104189434", "mean viability with MMS": 3.60e6}
{"Gene": "Ac76E", "PubChem SID": "SID104189454", "mean viability with MMS": 3.66e6}
{"Gene": "EndoU", "PubChem SID": "SID104195264", "mean viability with MMS": 3.47e6}
{"Gene": "CG5823", "PubChem SID": "SID104195673", "mean viability with MMS": 3.77e6}
{"Gene": "Nep1", "PubChem SID": "SID104198180", "mean viability with MMS": 3.53e6}
{"Gene": "Nep1", "PubChem SID": "SID104198181", "mean viability with MMS": 2.86e6}
{"Gene": "CG6118", "PubChem SID": "SID104195760", "mean viability with MMS": 2.77e6}
{"Gene": "CG6118", "PubChem SID": "SID104202554", "mean viability with MMS": 3.57e6}
{"Gene": "Rnp4F", "PubChem SID": "SID104198498", "mean viability with MMS": 3.58e6}
{"Gene": "CG9932", "PubChem SID": "SID104183067", "mean viability with MMS": 3.48e6}
